Among all 400,000 compounds or so, about 5,500 (1.4%) were called active. The shares of active, inactive and inconclusive entries below differ from those in the screen. Calls come from the whole dose curve; as a rule, active = well fitted cell-killing curve with a large enough effect; inconclusive = small, poorly fitted or top-dose-only effect, or effect the other way; inactive = flat fitted curve, though single readings scatter. Where the call is inconclusive, the potency comes from a doubtful curve fit.
Test: qHTS assay for MDR1-selective chemotherapeutics: Primary screen using the parental adenocarcinoma cell KB-3-1; note: nearly all actives have a fitted effect of over 60% in size
Details: KB-3-1 viability, CellTiter-Glo ATP luminescence, 72 h; activity change, negative = cytotoxic: at 46.1 µM (top of the series)
Method in brief: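 Cells are dispensed, compounds pinned in, plates held at 37 °C for 72 h, then CellTiter-Glo is added and luminescence read after 10 minutes. Cell line: parental KB-3-1 in phenol-red-free DMEM, 10% FBS.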
% is set by controls: 0 for no effect and ±100 for the full control effect; potency is the fitted concentration of half-maximal effect.

Compound	Potency	activity change, negative = cytotoxic
O=C(CN1C(=O)NC2(CCCCCC2)C1=O)N1CCC(Cc2ccccc2)CC1	inconclusive: 23.1 µM [cytotoxic, partial curve, poor fit]	
COc1cc(NC(=O)Cn2nc(C(F)(F)F)c3c2CCCC3)cc(OC)c1OC	inconclusive: 25.9 µM [cytotoxic, single point]	
O=C(Cc1cccs1)NCc1ccc(F)cc1	inactive	
CCOC(=O)/C=C1\CN(Cc2cc(OC)c(OC)c(OC)c2)S(=O)(=O)c2ccccc21	inconclusive: 7.31 µM [cytotoxic, partial curve]	
COc1ccc(S(=O)(=O)N2CCc3ccccc32)cc1OC	inconclusive: 29.1 µM [cytotoxic, partial curve, poor fit]	
O=C(Nc1ccc(F)c(Cl)c1)C1Cc2c(-c3ccc4c(c3)OCO4)ccnc2O1 (stereo not drawn)	inactive	
COCCN=c1scc(-c2cc(OC)ccc2OC)n1/N=C/c1c[nH]c2ccccc12	inconclusive: 29.1 µM [cytotoxic, single point]	
COc1cccc(NC(=O)c2ccccc2-c2nc(-c3ccc(F)cc3)no2)c1	inactive	
Cc1ccc2nc(-c3ccc(SCC(=O)N4CCc5ccccc54)nc3)[nH]c2c1	inconclusive: 2.91 µM [rising, full curve]	
CC(Oc1ccccc1F)C(=O)Nc1ccc2ccccc2c1 (stereo not drawn)	active: 11.6 µM	
CCOc1cc2c(c3c1C(c1ccccc1)N(S(=O)(=O)c1ccc(C)cc1)C3)C(=O)C=CC2=O (stereo not drawn)	inconclusive: 29.1 µM [cytotoxic, single point]	
CCn1cc(CNC(=O)c2ccc3nc(Cc4ccccc4F)oc3c2)cn1	inconclusive: 5.8 µM [cytotoxic, partial curve]	
CCCC1=C(C(=O)OCC)C(c2cccs2)n2ncnc2N1 (stereo not drawn)	inactive	
COc1cccc(CNC(=O)CSc2cc(C)[nH]c(=O)n2)c1		inconclusive: 30.8%
O=C(O)CCn1cc(C2CC(c3ccccc3)=NN2c2ccccc2)c(-c2ccccc2)n1 (stereo not drawn)	inactive	
COc1ccc(S(=O)(=O)N2CCN(C)CC2)cc1C(=O)N1CCCCC1	inactive	
O=C(CCNc1cccc(F)c1)c1cccc([N+](=O)[O-])c1	inactive	
Cc1cccc(CSC(=N)N)c1	inactive	
Fc1cnc(N2CCc3ccccc32)nc1N1CCc2ccccc21	inconclusive: 32.6 µM [cytotoxic, single point]	
O=c1cc(CSc2nnc(NC3CCCCC3)s2)nc2sccn12	inconclusive: 29.1 µM [rising, single point]	
C[C@@H]1CN([C@@H](C)CO)S(=O)(=O)c2ccc(C#Cc3cccc(F)c3)cc2O[C@H]1CN(C)S(=O)(=O)c1cn(C)cn1	inconclusive: 29.1 µM [cytotoxic, single point]	
O=C(NN1C(=O)C2C3C=CC(C3)C2C1=O)c1ccccc1 (stereo not drawn)	inactive	
CCn1ccc2cc(S(=O)(=O)N3CCCN(C(=O)Nc4ccc(C)cc4Cl)CC3)ccc21	inactive	
N#C/C(=C/c1cccn1-c1cccc(C(=O)O)c1)c1ccc(Cl)cc1	inactive	
CCOc1cccc(C(=O)Nc2ccc(N3CCCC3)cc2)c1	inconclusive: 23.1 µM [cytotoxic, single point]	

Compound	Potency	activity change, negative = cytotoxic
CC(=O)N1CCc2c(sc(NC(=O)C3CC3)c2-c2nc3ccccc3s2)C1	inconclusive: 29.1 µM [cytotoxic, single point]	
CC(=O)c1cccc(NC(=O)c2ccc([N+](=O)[O-])o2)c1	inconclusive: 18.4 µM [cytotoxic, single point]	
C=C1C(=O)O[C@@H]2[C@H]1CC[C@H](C)[C@]1(O)CCC(=O)[C@@]21C	inconclusive: 23.1 µM [cytotoxic, single point]	
O=C(NCCc1cn2ccccc2n1)c1cc(COc2ccc3ncccc3c2)on1	inconclusive: 8.2 µM [cytotoxic, partial curve]	
Oc1ccc(O)c(Cc2nc3ccccc3s2)c1	inconclusive: 3.66 µM [cytotoxic, full curve, poor fit]	
COc1ccc(Cl)cc1NS(=O)(=O)c1c(C)nc2sccn2c1=O	inactive	
COc1ccc(N(CC(=O)Nc2ccccc2C(F)(F)F)C2=NC3CS(=O)(=O)CC3S2)cc1 (stereo not drawn)	inconclusive: 29.1 µM [cytotoxic, single point]	
Cc1nn(-c2ccccc2)c2c1CC(=O)Nc1ccccc1-2	active: 0.651 µM	
O=C(/C=C/c1ccccc1)OCc1cnc(Cl)s1	inactive	
CC1CCN(C(=O)CN2c3ccc(Br)cc3-c3ccccc3S2(=O)=O)CC1	inactive	
CN(C)c1ccc(NC(=O)c2cccc(C(=O)Nc3ccc(N(C)C)cc3)n2)cc1	inconclusive: 6.51 µM [cytotoxic, partial curve]	
COc1ccc(-c2nn(-c3ccccc3)cc2C(=O)N2CCN(S(=O)(=O)c3ccccc3C#N)CC2)cc1	inconclusive: 20.6 µM [rising, partial curve, poor fit]	
COc1cccc(/C=N/NC(=O)CNC(=O)c2ccc3c(c2)OCCO3)c1O	inconclusive: 23.1 µM [cytotoxic, partial curve, poor fit]	
Cc1ccc(CCC(=O)Nc2ncc(Cc3cccc(Cl)c3Cl)s2)o1	active: 0.116 µM	
COc1ccc(C)cc1NC(=O)COC(=O)c1c(C)nn(-c2ccccc2)c1C	inconclusive: 29.1 µM [cytotoxic, single point]	
CC(C)c1cccc(C(C)C)c1NC(=O)CNCc1ccccc1F	inactive	
O=C(c1ccccc1Cl)N1CCCC(c2nc3c(nnn3Cc3ccc(F)cc3F)c(=O)[nH]2)C1 (stereo not drawn)	inactive	
COc1ccc(-n2nnnc2CNC(=O)c2ccc3c(c2)OCO3)cc1	inactive	
Cc1ccc(-c2nnn(C(C)C(=O)N3c4ccccc4CCc4ccccc43)n2)cc1 (stereo not drawn)	inconclusive: 32.6 µM [cytotoxic, single point]	
COc1ccc(-c2[nH]ncc2/C=C(/C#N)C(=O)NC2CCCCC2)cc1	inconclusive: 29.1 µM [cytotoxic, single point]	
COc1ccc(NC(=O)c2cc3c(=O)n(Cc4cccs4)ccc3nc2C)c(OC)c1	inactive	
Cc1cc(C)cc(NS(=O)(=O)c2ccc(-c3cc(C)no3)s2)c1	active: 3.26 µM	
CSCCC(NC(=O)c1ccccc1)C(=O)N1CCN(C(c2ccccc2)c2ccccc2)CC1 (stereo not drawn)	inconclusive: 14.6 µM [cytotoxic, partial curve, poor fit]	
Cc1ccc(OCCN2C(=O)C(=O)c3cc(C)ccc32)cc1	inconclusive: 18.4 µM [cytotoxic, single point]	
Cc1ccc(-c2nc3cc(Cl)ccc3o2)cc1NC(=O)c1cc2ccccc2o1		inconclusive: 31%

Compound	Potency	activity change, negative = cytotoxic
CSc1ccccc1-c1nnc(-c2ccc(Cl)cc2)o1	inconclusive: 1.46 µM [cytotoxic, full curve]	
CN(c1ccccc1)S(=O)(=O)c1cccc(NC(=O)c2ccc(=O)[nH]c2)c1	inconclusive: 29.1 µM [cytotoxic, single point]	
O=C(CCN1C(=O)c2ccccc2C1=O)Nc1ccc(-c2nc3ccccc3o2)cc1	inactive	
CC1(C)CC2(CCO1)OC(=O)CC2C(=O)Nc1ccc(Cl)cc1[N+](=O)[O-] (stereo not drawn)	inactive	
CC(C)n1c(S(=O)(=O)O)nc2ccccc21	inactive	
Cc1ccccc1Cn1c(=O)n(CC2CCC(C(=O)N3CCC(C)CC3)CC2)c(=O)c2sccc21 (stereo not drawn)	inconclusive: 25.9 µM [cytotoxic, single point]	
CCc1ccccc1NC(=O)CN(C)C(=O)CSc1nc2cc(Cl)ccc2s1	inactive	
Cc1c(OCC(=O)NC2CCN(Cc3ccccc3)CC2)ccc2c3c(c(=O)oc12)CCC3		inconclusive: -33.6%
CCC1CCCCN1S(=O)(=O)c1ccccc1[N+](=O)[O-] (stereo not drawn)	inactive	
CCn1c(C(=O)NCc2ccccn2)cc2sccc21	inactive	
O=C(Nc1cccn(Cc2c(Cl)cccc2Cl)c1=O)C1CC1	inactive	
CC(=O)Nc1cc(NC(C)=O)cc(C(=O)OCC(=O)N2CC(C)OC(C)C2)c1 (stereo not drawn)	inactive	
CN(Cc1cccs1)c1ncnc2ccc(-c3ccc4cnn(C)c4c3)cc12	inconclusive: 25.9 µM [cytotoxic, partial curve, poor fit]	
Cc1nc2ccccc2n1CC(O)Cn1c2ccccc2c2ccccc21 (stereo not drawn)	active: 18.4 µM	
CC(C)CC(=O)N1CCN(Cc2ccc(Br)cc2)CC1	inconclusive: 23.1 µM [cytotoxic, partial curve]	
CCOC(=O)c1cc(-c2cccc([N+](=O)[O-])c2)n[nH]1	inactive	
CCc1cc(/C=C/c2ccnc3ccccc23)ccc1N(C)C	active: 6.51 µM	
CC(C)C[C@H]1CNC(=S)N1C[C@H]1CCCN1C[C@H](Cc1ccc(O)cc1)N1C[C@H](Cc2ccc(O)cc2)N(CCc2ccccc2)C1=S	inconclusive: 29.1 µM [cytotoxic, single point]	
COc1ccc(NC(=O)c2cc(C)no2)cc1	inconclusive: 11.6 µM [cytotoxic, partial curve, poor fit]	
O=C(COC(=O)Cc1cccs1)NCC(=O)Nc1ccc(F)cc1	inconclusive: 32.6 µM [rising, single point]	
COc1ccc2c(c1)CCCC(Br)C2=O (stereo not drawn)	inconclusive: 29.1 µM [cytotoxic, single point]	
CCCCCn1c(SCC2CCCO2)nc2cc(C(=O)N3CCC(C(N)=O)CC3)ccc2c1=O (stereo not drawn)	inconclusive: 23.1 µM [rising, single point]	
CCCCn1c(CN2CCN(C(=O)OCC)CC2)nc2c1c(=O)n(C)c(=O)n2C	inconclusive: 29.1 µM [cytotoxic, single point]	

Complete entries as entered above.
`CCCCCn1c(SCC2CCCO2)nc2cc(C(=O)N3CCC(C(N)=O)CC3)ccc2c1=O` (stereo not drawn) is entered as Potency: inconclusive: 23.1 µM [rising, single point]
`CN(Cc1cccs1)c1ncnc2ccc(-c3ccc4cnn(C)c4c3)cc12` is entered as Potency: inconclusive: 25.9 µM [cytotoxic, partial curve, poor fit]
`CN(c1ccccc1)S(=O)(=O)c1cccc(NC(=O)c2ccc(=O)[nH]c2)c1` is entered as Potency: inconclusive: 29.1 µM [cytotoxic, single point]
`Cc1nc2ccccc2n1CC(O)Cn1c2ccccc2c2ccccc21` (stereo not drawn) is entered as Potency: active: 18.4 µM

From PubChem BioAssay AID1347075 (National Center for Advancing Translational Sciences (NCATS), 2019)
